Data as given in PubChem BioAssay AID1224828 (NIAID, 2016)
Purpose: 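Regulators linking TLR4 signalling to p65 nuclear translocation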 (primary screen). Cells: mouse RAW264.7 G9 macrophage reporter cells (GFP-p65, Tnf promoter-mCherry). Knock-down reagent: siRNA pool against mouse genes, 100 nM. Time to read-out: 2 days siRNA transfection, then 40 min LPS before fixation. Treatment: LPS (Salmonella minnesota R595) at 10 ng/ml. Read-out: 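Imaged p65 nuclear translocation ratio, normalised to the plate median, converted to robust z-scores and averaged across two replicates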. Direction: p65 translocation robust z-score: higher = more nuclear NF-kappaB p65 after LPS than the plate median; nuclear/cytoplasmic p65 ratio: higher = more nuclear NF-kappaB p65. Call rule: 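Active if robust z is above 3.3 (negative regulators) or below -1.56, the Tlr4 control median (positive regulators); activity score 50 or more; control wells not called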. Calls: active = hit (p65 shift raised or lowered); inactive = no clear change.
In all, the deposit lists about 17,000 reagents; this is a part drawn at random. Over the whole deposit, 762 (4.5%) got an active call. 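Active calls include both raised and lowered p65 entry, mostly lowered; wells with fewer than 50 cells lack a z-score.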 The raw values are shown without normalisation. Reagent sequences are not shown.

Aldoa — p65 translocation robust z-score: 0.1; nuclear/cytoplasmic p65 ratio, rep 1: 1.66; nuclear/cytoplasmic p65 ratio, rep 2: 1.61; low cell count flag: enough cells to score; activity call: inactive
Nbl1 — p65 translocation robust z-score: -1.16; nuclear/cytoplasmic p65 ratio, rep 1: 1.33; nuclear/cytoplasmic p65 ratio, rep 2: 1.17; low cell count flag: enough cells to score; activity call: inactive
Krtap4-13 — nuclear/cytoplasmic p65 ratio, rep 1: 1.39; nuclear/cytoplasmic p65 ratio, rep 2: 1.23; low cell count flag: fewer than 50 cells per well; well left out of scoring; activity call: inactive
Skap1 — p65 translocation robust z-score: 0.72; nuclear/cytoplasmic p65 ratio, rep 1: 1.89; nuclear/cytoplasmic p65 ratio, rep 2: 1.4; low cell count flag: enough cells to score; activity call: inactive
Fgf20 — p65 translocation robust z-score: 0.66; nuclear/cytoplasmic p65 ratio, rep 1: 1.51; nuclear/cytoplasmic p65 ratio, rep 2: 1.47; low cell count flag: enough cells to score; activity call: inactive

Single entries from the entries so far:
Entry of Skap1 under “activity call”: inactive
Under “activity call”, Aldoa shows inactive

Further records follow.
Dipk1c — p65 translocation robust z-score: -0.42; nuclear/cytoplasmic p65 ratio, rep 1: 1.47; nuclear/cytoplasmic p65 ratio, rep 2: 1.52; low cell count flag: enough cells to score; activity call: inactive
Hilpda — p65 translocation robust z-score: 0.49; nuclear/cytoplasmic p65 ratio, rep 1: 1.67; nuclear/cytoplasmic p65 ratio, rep 2: 1.7; low cell count flag: enough cells to score; activity call: inactive
Hunk — p65 translocation robust z-score: -1.43; nuclear/cytoplasmic p65 ratio, rep 1: 0; nuclear/cytoplasmic p65 ratio, rep 2: 1.2; low cell count flag: enough cells to score; activity call: inactive
Syt14 — nuclear/cytoplasmic p65 ratio, rep 1: 1.36; nuclear/cytoplasmic p65 ratio, rep 2: 1.19; low cell count flag: fewer than 50 cells per well; well left out of scoring; activity call: inactive
Slc35a5 — nuclear/cytoplasmic p65 ratio, rep 1: 1.28; nuclear/cytoplasmic p65 ratio, rep 2: 1.19; low cell count flag: fewer than 50 cells per well; well left out of scoring; activity call: inactive
Etfbkmt — p65 translocation robust z-score: -1.31; nuclear/cytoplasmic p65 ratio, rep 1: 1.18; nuclear/cytoplasmic p65 ratio, rep 2: 1.06; low cell count flag: enough cells to score; activity call: inactive
Or1x2 — p65 translocation robust z-score: 1.03; nuclear/cytoplasmic p65 ratio, rep 1: 1.58; nuclear/cytoplasmic p65 ratio, rep 2: 1.39; low cell count flag: enough cells to score; activity call: inactive
